Source: PMC9554091
These are yes or no findings as the source states them, for the method shown. Binding seen in cells or lysates may run through a third protein.

Chains of the proteins cited; added tags and fusions are not shown.
UniProt Q05397: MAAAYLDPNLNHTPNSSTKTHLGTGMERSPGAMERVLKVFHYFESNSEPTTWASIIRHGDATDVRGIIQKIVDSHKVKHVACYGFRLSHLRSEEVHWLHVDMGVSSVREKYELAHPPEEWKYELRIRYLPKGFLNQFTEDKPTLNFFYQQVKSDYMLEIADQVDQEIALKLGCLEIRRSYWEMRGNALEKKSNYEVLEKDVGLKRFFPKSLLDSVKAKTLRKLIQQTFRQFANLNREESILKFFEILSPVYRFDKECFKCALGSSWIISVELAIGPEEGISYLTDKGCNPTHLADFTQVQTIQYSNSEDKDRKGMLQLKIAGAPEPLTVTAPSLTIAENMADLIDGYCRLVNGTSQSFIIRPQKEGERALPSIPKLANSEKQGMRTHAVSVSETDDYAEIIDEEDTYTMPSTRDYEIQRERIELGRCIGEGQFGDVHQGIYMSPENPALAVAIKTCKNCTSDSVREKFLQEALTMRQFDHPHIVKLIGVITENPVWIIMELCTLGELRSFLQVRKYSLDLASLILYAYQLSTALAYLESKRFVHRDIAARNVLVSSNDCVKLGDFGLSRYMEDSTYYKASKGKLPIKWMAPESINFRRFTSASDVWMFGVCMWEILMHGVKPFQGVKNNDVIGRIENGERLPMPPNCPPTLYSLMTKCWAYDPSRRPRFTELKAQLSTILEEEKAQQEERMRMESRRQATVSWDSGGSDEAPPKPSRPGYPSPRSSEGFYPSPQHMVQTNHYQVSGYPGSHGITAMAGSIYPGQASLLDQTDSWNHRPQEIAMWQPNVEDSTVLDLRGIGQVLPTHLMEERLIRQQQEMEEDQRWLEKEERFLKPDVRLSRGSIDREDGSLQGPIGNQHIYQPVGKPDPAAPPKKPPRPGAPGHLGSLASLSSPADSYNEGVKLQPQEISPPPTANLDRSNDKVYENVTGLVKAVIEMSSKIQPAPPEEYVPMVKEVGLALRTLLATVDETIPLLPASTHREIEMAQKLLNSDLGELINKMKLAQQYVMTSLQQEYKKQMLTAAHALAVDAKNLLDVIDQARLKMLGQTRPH
UniProt P01106: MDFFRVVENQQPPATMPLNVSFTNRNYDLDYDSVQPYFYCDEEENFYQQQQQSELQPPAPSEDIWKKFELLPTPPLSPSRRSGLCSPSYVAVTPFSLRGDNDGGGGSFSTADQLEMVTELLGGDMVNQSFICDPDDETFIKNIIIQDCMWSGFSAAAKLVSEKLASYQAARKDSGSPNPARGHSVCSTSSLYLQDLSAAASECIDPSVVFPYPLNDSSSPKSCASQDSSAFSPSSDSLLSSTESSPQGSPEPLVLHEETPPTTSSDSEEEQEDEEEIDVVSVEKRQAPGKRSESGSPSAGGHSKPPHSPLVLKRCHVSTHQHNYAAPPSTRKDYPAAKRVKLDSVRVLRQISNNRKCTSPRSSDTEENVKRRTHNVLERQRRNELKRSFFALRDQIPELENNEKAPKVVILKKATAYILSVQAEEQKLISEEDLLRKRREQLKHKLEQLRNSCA

Molecular target: focal adhesion kinase (FAK) (UniProt Q05397)
Assay: co-IP; co-IP of c-Myc and FAK, told only in the discussion; cells, bait and conditions not stated

binding: no binding
Substance: c-Myc (from UniProt P01106 1-454)
